Results on 60 compounds are retold here after PubChem BioAssay AID2685 (National Center for Advancing Translational Sciences (NCATS), 2010).

This assay in a line: qHTS Assay for Lipid Storage Modulators in Drosophila S3 Cells.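 For cell number change: cells counted by Cell Tracker Red CMTPX staining in the red channel.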 As to conditions: BODIPY lipid droplet fluorescence, 18-24 h; for cell number change: measured here: cell count max response, cells fed with added oleic acid. The procedure, abridged: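 Laser-scanning cytometry quantifies lipid droplet accumulation (500–530 nm total intensity; droplet/cell object ratio) in oleic acid-fed (400 uM added) Drosophila S3 cells treated with a concentration series. 20 uM Triacsin C defined 100% inhibition.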
(In general: qHTS replaces the single test concentration by a dilution series.)

The mark [1] stands for this setting: measured here: cell number channel AC50, cells fed with added oleic acid.
Where [2] appears, read: measured here: lipid fluorescence (Fed channel) AC50, cells fed with added oleic acid.

Each structure is given as a SMILES string. The list shows a part of the results. Further columns of the screen follow, without active or inactive calls. Most of these compounds were active or inconclusive in the main read-out, so they are no random draw. Potencies come from curve fits of mixed quality, noted in brackets.

By AC50 is commonly meant the concentration giving half of the maximal activity seen. For the compound `COc1ccc(S(=O)(=O)N(C)c2ccc(C(=O)NCc3ccco3)cc2)cc1`, the cell number change was 7.51%. For the same compound, under setting [1], the AC50 is 3.26 µM [rising, partial curve, poor fit]. The AC50 under setting [2] was 0.231 µM [rising, full curve].

`O=C(OCC(=O)c1ccc[nH]1)c1ccc(Cl)nc1`: the cell number change was 6.73%. Also, under setting [2], the AC50 is 4.61 µM [rising, single point].

As to `CCc1ccc(NC(=O)CN(CC(=O)Nc2ccc(CC)cc2)CC(C)O)cc1` (stereo not drawn), the cell number change was -22.2%.

In the case of `C=C(C)COc1ccc(-c2n[nH]c(C)c2-c2ccc(OC)c(OC)c2)c(O)c1`, the cell number change is -62.5%. Besides, under setting [1], the AC50 is 20.6 µM [falling, single point].

Take `CN(C)c1ccc(C2OC(=O)C3(CCCC3)C(=O)C2(C)C)cc1` (stereo not drawn): the cell number change is -46.2%. Also, the AC50 under setting [1] is 16.4 µM [falling, single point]. Further, the AC50 under setting [2] is 29.1 µM [falling, single point].

For `Cc1ccc(S(=O)(=O)N2[C@@H](c3ccc(Cl)cc3)C(C(=O)O)=CC[C@H]2c2cccs2)cc1`, the cell number change amounted to 1.58%. Besides, under setting [2], the AC50 was 1.84 µM [rising, full curve, poor fit].

Regarding `O=C(NCCOc1ccc(Cl)cc1)C1CC(=O)N(c2ccc(F)cc2)C1` (stereo not drawn), the cell number change was -3.31%. In addition, under setting [2], the AC50 was 0.0184 µM [rising, full curve, poor fit].

In the case of `c1nnc2c3c4c(sc3ncn12)CCCC4`, the cell number change was -14.5%. Further, the half-maximal activity concentration (AC50) under setting [2] is 29.1 µM [falling, single point].

`COC(=O)[C@@]1(Cc2ccc(OC)cc2)[C@H]2c3cc(C(=O)N(C)C)n(CCSCCO)c3C[C@H]2CN1C(=O)c1ccccc1`: the cell number change was 21.2%. Further, under setting [2], the AC50 was 29.1 µM [rising, single point].

For the compound `O=C1CCN(Cc2ccccc2)S(=O)(=O)c2ccc(C(F)(F)F)cc21`, the cell number change was 1.68%. The AC50 under setting [2] is 6.51 µM [rising, single point].

Regarding `O=P1(O)C=C(c2ccccc2)OC(c2ccccc2)=C1`, the cell number change worked out at 14.9%.

For `Cc1cc(C)nc(S/C=C/C(=O)c2ccc(F)cc2)n1`, the cell number change is -22.5%. For the same compound, under setting [1], the AC50 is 0.731 µM [falling, full curve, poor fit]. Further, the AC50 under setting [2] is 0.259 µM [falling, full curve].

Turning to `Cc1ccc(NC(=S)N(CCCN2CCCC2)Cc2cccn2Cc2ccc(Cl)cc2)cc1Cl`, the cell number change was -79.8%. Moreover, the AC50 under setting [1] was 20.6 µM [falling, partial curve]. In addition, under setting [2], the AC50 was 18.4 µM [falling, partial curve].

For the compound `Cc1ccccc1NC(C)C(=O)N/N=C/c1c[nH]c2ccccc12` (stereo not drawn), the AC50 was 0.461 µM [rising, partial curve, poor fit] under setting [1] and 0.291 µM [rising, full curve] under setting [2].

For `O=C(Nn1cnnc1)c1ccc(F)c(S(=O)(=O)N2CCCCC2)c1`, the cell number change is -18%. Also, the AC50 under setting [2] is 1.03 µM [falling, partial curve, poor fit].

In the case of `Fc1ccc(CSc2nnc(-c3cccnc3)o2)cc1`, the cell number change was determined as 3.84%. The AC50 under setting [2] is 0.731 µM [falling, single point].

On to `O=c1[nH]c2ccc(NC(=S)Nc3ccc(Cl)cc3Cl)cc2[nH]1`, for which the cell number change is -48.9%. Further, the AC50 under setting [1] was 20.6 µM [falling, single point]. Moreover, under setting [2], the AC50 was 29.1 µM [falling, single point].

For the compound `C=CCNC(=O)c1cccc(Br)c1`, under setting [1], the AC50 was 6.51 µM [falling, single point].

As to `CCN(CC)c1ccc(NC(=O)CSc2nc(C)cc(=O)[nH]2)cc1`, the cell number change worked out at 54.3%. The half-maximal activity concentration (AC50) under setting [1] was 25.9 µM [rising, single point].

Consider `COc1cccc(-c2nc(CS(=O)CC(=O)NCCc3ccccc3)c(C)o2)c1` (stereo not drawn), for which the cell number change is 12.5%.

`Cc1ccc(C(=O)Nc2nc(-c3cc(Cl)sc3Cl)cs2)cc1`: the cell number change is -5.6%. Besides, the AC50 under setting [2] was 0.411 µM [falling, partial curve, poor fit].

On to `CC1(C)Cc2nc(NCCN3CCOCC3)c(C#N)cc2CO1`, for which the cell number change was -5.82%. For the same compound, the AC50 under setting [2] was 16.4 µM [falling, partial curve, poor fit].

`O=S(=O)(/N=C(/Nc1ccccn1)c1ccccc1)c1ccc(F)cc1`: the cell number change is -26%. Moreover, the AC50 under setting [2] is 6.51 µM [falling, single point].

As for `O=P(O)(Cc1ccccc1)Cc1ccccc1`, the cell number change came out at 28.1%.

Regarding `O=C(C1=NNCC1c1ccc(Cl)cc1)C1CO1` (stereo not drawn), the cell number change turned out to be 20.9%. Besides, under setting [1], the AC50 was 6.51 µM [rising, single point]. Also, under setting [2], the AC50 is 1.46 µM [falling, full curve, poor fit].

Take `COc1ccc(CCNC(=O)C23CCC(C)(C(=O)O2)C3(C)C)cc1OC` (stereo not drawn): the cell number change was found to be 24.5%. Besides, under setting [2], the AC50 is 29.1 µM [falling, single point].

Regarding `O=S1(=O)c2ccccc2N=NN1Cc1cc(Cl)cc(Cl)c1`, the cell number change was -1.07%. For the same compound, the AC50 under setting [2] was 6.51 µM [falling, single point].

Consider `COc1ccc(C(=O)C(C)OC(=O)CCN2C(=O)C3CC=CCC3C2=O)cc1` (stereo not drawn), for which the cell number change is -3.55%. For the same compound, the AC50 under setting [2] is 0.116 µM [rising, full curve, poor fit].

On to `COc1cc(C(=O)NCC2CCCN2S(=O)(=O)c2cccs2)cc(OC)c1OC` (stereo not drawn), for which the cell number change is 24.6%.

For `CCOC(=O)N1CCN(C(=O)CCS(=O)(=O)c2ccc3c(c2)CC(C)N3C(=O)CC)CC1` (stereo not drawn), the cell number change is -7.22%. Also, the AC50 under setting [2] is 29.1 µM [rising, single point].

In the case of `Cc1nn2c3ccccc3nc2c2ccccc12`, the AC50 under setting [1] was 0.116 µM [falling, full curve, poor fit].

With `C=CCc1c(C)nc(SC)nc1Nc1ccc(C)cc1`, the cell number change came to 12.2%. The AC50 under setting [1] was 0.082 µM [rising, full curve]. The half-maximal activity concentration (AC50) under setting [2] was 0.00461 µM [rising, full curve, poor fit].

As for `O=C(c1ccc(Cl)c(Cl)c1)c1cnc(Nc2ccccc2)s1`, the cell number change is -32.4%.

In the case of `Cc1nn(-c2ccccc2)c(Cl)c1/C=C(\CC(=O)O)c1nc2ccccc2s1`, the cell number change was 59.1%. Moreover, the half-maximal activity concentration (AC50) under setting [1] was 14.6 µM [rising, partial curve].

As to `CCOc1ccc(NC(=O)CC(C)S(=O)(=O)c2ccc3c(c2)NC(=O)CO3)cc1` (stereo not drawn), the cell number change was -13.5%. For the same compound, the AC50 under setting [2] is 0.00461 µM [falling, full curve, poor fit].

Turning to `NC(=S)N/N=C/c1ccc(C(F)(F)F)cc1`, the cell number change came out at 16.7%. For the same compound, the AC50 under setting [2] was 8.2 µM [falling, partial curve, poor fit].

Turning to `O=C(O)c1ccc(NS(=O)(=O)c2ccc3nnn(O)c3c2)cc1`, the cell number change was -28%. Besides, the AC50 under setting [1] is 4.61 µM [falling, full curve, poor fit]. Further, the AC50 under setting [2] was 29.1 µM [falling, single point].

As for `CC1CC(C)CN(S(=O)(=O)c2ccc(C(=O)NCCCn3ccnc3)cc2)C1` (stereo not drawn), the cell number change is -35.9%. Under setting [1], the AC50 was 23.1 µM [falling, partial curve]. Further, the AC50 under setting [2] was 16.4 µM [falling, partial curve].

Consider `CC1=C(C(=O)OCCCCCl)C(c2cc3c(cc2Br)OCO3)NC(=O)N1` (stereo not drawn), for which the cell number change is -1.09%.

Consider `COc1cccc(N2CCN(C(=S)NCc3ccco3)CC2)c1`, for which the cell number change was 21.6%. Besides, the concentration at half-maximal activity (AC50) under setting [2] is 29.1 µM [rising, single point].

In the case of `O=C(Nc1nccs1)C1CCN(S(=O)(=O)c2ccc(Cl)c(C(F)(F)F)c2)CC1`, the cell number change amounted to 93.5%. Further, the AC50 under setting [1] is 13 µM [rising, partial curve]. In addition, the AC50 under setting [2] is 2.91 µM [rising, partial curve].

`CCc1nnc(NC(=O)c2ccc(-c3cccc(C(F)(F)F)c3)o2)s1`: the AC50 under setting [2] is 29.1 µM [rising, single point].

As for `O=C(Cc1ccsc1)NNC(=O)c1ccc(F)cc1`, the cell number change is 38.9%. Further, under setting [1], the AC50 is 29.1 µM [rising, single point].

In the case of `CC(=O)N1CC2(C)CN(C(C)=O)CC(C)(C1)C2`, the cell number change is -45.6%. In addition, the AC50 under setting [1] was 23.1 µM [falling, single point]. Further, the AC50 under setting [2] was 3.66 µM [falling, full curve].

On to `COc1ccccc1N1CCN(C2CCCN(C(=O)CN3CCCCC3=O)C2)CC1` (stereo not drawn), for which the cell number change turned out to be 6.93%.

`COC(=O)c1ccc(/C=N/Nc2nc(-c3ccc(Cl)cc3Cl)cs2)cc1`: the cell number change came to 9.87%. For the same compound, under setting [2], the AC50 was 6.51 µM [falling, single point].

For the compound `NS(=O)(=O)c1ccc(CNC(=S)NC2CCCC2)cc1`, the cell number change was -5.54%.

`Cc1nn(C)c2nc(-c3cccs3)cc(C(F)(F)F)c12`: the cell number change was -3%. Further, the AC50 under setting [2] is 3.26 µM [rising, full curve, poor fit].

For the compound `Cc1ccc(-c2nn(-c3ccccc3)c3[nH]c(=O)c(CNCc4ccccc4)cc23)cc1`, the cell number change was -81.4%. Moreover, the concentration at half-maximal activity (AC50) under setting [1] is 29.1 µM [falling, single point]. For the same compound, the AC50 under setting [2] is 29.1 µM [falling, single point].

Turning to `Cc1c(S(=O)(=O)NC(C)c2ccccc2)c(=O)n(C)c(=O)n1C` (stereo not drawn), the cell number change is -1.76%.

Turning to `CC1CCCC(NC(=O)c2cccs2)C1C` (stereo not drawn), the cell number change is -24%. The AC50 under setting [2] is 0.206 µM [falling, full curve, poor fit].

As for `CC1CCN(C(=O)COC(=O)CCC(=O)c2cccs2)CC1`, the cell number change came out at 4.38%. For the same compound, the AC50 under setting [2] was 0.82 µM [rising, full curve].

Turning to `CCOC(=O)C1CCN(S(=O)(=O)c2ccc3c(c2)NC(=O)C(C)C(=O)N3)CC1` (stereo not drawn), the cell number change was -26.8%. Also, the concentration at half-maximal activity (AC50) under setting [2] is 0.58 µM [falling, full curve].

Take `NS(=O)(=O)c1ccc(CCNCc2ccccc2OCc2ccc(Cl)cc2)cc1`: the cell number change is -11.4%.

Turning to `CCOC(=O)C1=C(N)Oc2cc(C)n(C)c(=O)c2C1c1ccncc1` (stereo not drawn), the cell number change was 32.3%. Also, the AC50 under setting [1] is 9.2 µM [rising, partial curve, poor fit].

With `Cc1c(Cl)c(=O)oc2cc(OC(C)C)ccc12`, the cell number change is -26.7%. In addition, the AC50 under setting [1] is 2.59 µM [rising, partial curve, poor fit]. Besides, under setting [2], the AC50 is 6.51 µM [rising, single point].

Take `CN(C)c1ncc(S(=O)(=O)c2ccc(Cl)cc2)c(-c2ccccc2)n1`: the cell number change is -18.9%.

In the case of `CC12CCC(C(=O)N(c3cccc(Cl)c3)C1=O)C2(C)C` (stereo not drawn), the cell number change is -39.4%. In addition, under setting [1], the AC50 was 4.11 µM [falling, full curve].

`COCCn1c(Cc2ccccc2)nnc1SCC(=O)N1CCCCC1C` (stereo not drawn): the cell number change was found to be 6.76%. In addition, the AC50 under setting [2] is 1.64 µM [falling, partial curve].

As to `CC1(c2ccccc2)NC(=O)N(CC(=O)Nc2ccc(Cl)c(S(=O)(=O)N3CCCCC3)c2)C1=O` (stereo not drawn), the cell number change is 22.7%. The AC50 under setting [1] is 0.731 µM [rising, full curve].
